PubChem BioAssay AID743454 | Peter MacCallum Cancer Centre, 2014
Test: 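Genes whose loss kills vorinostat-resistant colon cancer cells under vorinostat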 (primary screen). Cells: human HCT116-VR colon cancer cells, selected for vorinostat resistance. Knock-down reagent: siRNA pool against human genes, 40 nM siRNA pool. Time to read-out: vorinostat for 24 h, read-out about 72 h after transfection. Treatment: vorinostat at 2.5 µM final. Read-out: 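Two measures, CellTiter-Fluor viability and luminescent caspase 3/7 activity, each as fold change against same-plate mock wells, mean of duplicates, then screen-wide robust z-score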. Scale: viability robust z-score: higher = more viable cells than screen typical; caspase robust z-score: higher = more caspase 3/7 activity than screen typical. Call rule: 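Hits are knock-downs in viability class RV1/RV2 or caspase class CA1/CA2, excluding ones that killed cells in the no-drug cell-count arm; hits then retested with single siRNAs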.
This is an unselected part of about 18,000 reagents tested. 450 of them (2.5%) count as active. 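Single biological run; no consistent viability z cut-off exists, so the class columns, not z-scores, define the calls.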

no.	Gene	viability hit class	caspase hit class	viability robust z-score	caspase robust z-score	call
1	LDHD	no change	no change	-0.26	0.36	inactive
2	DMTF1	no change	no change	-0.66	-0.62	inactive
3	SERPINA9	no change	no change	1.41	-0.71	inactive
4	HOPX	no change	no change	0.38	1.55	inactive
5	HP	no change	no change	0.31	-0.19	inactive
6	NPL	no change	no change	0.72	0.52	inactive
7	LINC01587	no change	no change	-0.25	-0.85	inactive
8	SLC25A19	no change	no change	1.41	0.58	inactive
9	ZNF146	no change	no change	1.32	0	inactive
10	NLGN4X	no change	no change	-1.44	-0.54	inactive
11	RUVBL2	no change	no change	-2.73	1.5	inactive
12	TKT	no change	no change	-0.37	1.65	inactive
13	NNAT	no change	no change	-1.56	0.79	inactive
14	GCSH	no change	no change	0.16	-0.24	inactive
15	BASP1	no change	no change	0.39	0.72	inactive
16	C1orf35	no change	no change	-0.36	-0.99	inactive
17	ZNF140	no change	no change	0.74	-0.56	inactive
18	ZNF33B	no change	no change	0.7	0.63	inactive
19	PTPRT	no change	no change	0.22	1.27	inactive
20	HTN3	no change	no change	0	0.87	inactive
21	FGF21	no change	no change	-0.08	0.01	inactive
22	APRG1	no change	no change	-1	0.08	inactive
23	TAAR5	no change	no change	-0.55	-0.42	inactive
24	RPS8	no change	no change	-5.12	-1.52	inactive
25	DPEP1	no change	no change	0.46	1.6	inactive
26	CTRC	no change	no change	-1.34	0.06	inactive
27	FNDC4	no change	no change	0.84	0.96	inactive
28	IFT27	no change	no change	0.36	-0.88	inactive
29	GPBAR1	no change	no change	-0.24	-0.62	inactive
30	NCOA7	no change	no change	-0.34	2.64	inactive
31	HTR1A	no change	no change	-0.97	2.23	inactive
32	USP51	no change	no change	0.1	-0.07	inactive
33	CDKN3	no change	no change	-0.65	0.85	inactive
34	SLC2A1	no change	no change	0.4	-0.48	inactive
35	CLCNKB	no change	no change	-0.48	-0.74	inactive
36	KLK15	no change	no change	-1.29	-0.04	inactive
37	ABCA2	no change	no change	-2.06	2.29	inactive
38	PRKAR2A	no change	no change	0.42	2.08	inactive
39	OR2L3	no change	no change	-0.52	0.28	inactive
40	CDH11	no change	no change	0.56	-0.68	inactive
41	CTAG1B	no change	no change	-1.08	0.16	inactive
42	GALR2	no change	no change	0.02	0.9	inactive
43	CHMP4A	no change	no change	-0.72	-0.01	inactive
44	DEFB123	no change	no change	0.84	-0.29	inactive
45	GALNT11	no change	no change	-0.8	0.53	inactive
46	TNFSF11	no change	no change	-0.18	1.84	inactive
47	PHOX2B	no change	no change	-0.08	-0.7	inactive
48	IRGC	no change	no change	0.18	0.6	inactive
49	PSAP	no change	no change	-0.24	1.15	inactive
50	C17orf75	no change	no change	-0.33	0.48	inactive
51	MTO1	no change	no change	-0.42	-0.44	inactive
52	C1orf220	no change	no change	-0.32	0.63	inactive
53	CENPC	no change	no change	-0.72	0.02	inactive
54	NRK	no change	no change	1.42	0.4	inactive
55	LRRC3B	no change	no change	-1.17	0.56	inactive
56	ARPC4	no change	no change	0.69	-0.64	inactive
57	RTN4	no change	no change	-1.44	-0.11	inactive

In a second layout: results already given.
Gene | viability hit class | caspase hit class | viability robust z-score | caspase robust z-score | call
OR2L3 | no change | no change | -0.52 | 0.28 | inactive
CDH11 | no change | no change | 0.56 | -0.68 | inactive
CTAG1B | no change | no change | -1.08 | 0.16 | inactive
GALR2 | no change | no change | 0.02 | 0.9 | inactive
CHMP4A | no change | no change | -0.72 | -0.01 | inactive
DEFB123 | no change | no change | 0.84 | -0.29 | inactive
GALNT11 | no change | no change | -0.8 | 0.53 | inactive
